Laboratory results as given in patent US8217085B2 (priority 2009, dated 2012).
“And” between values parts separate entries of the source, which are not always exact repeats. Identical values can stand only once. Like-named read-outs stand apart in the source and are kept apart here. The source gives many values for each of these; only a part stands here.

Test system: ATCC strain 43300 Staphylococcus aureus
[1] = 5% MSM, 12 μg/ml oxacillin, 96 hours
[2] = 5% MSM, 12 μg/ml oxacillin, 120 hours
[3] = 5% MSM, 30 μg/ml oxacillin, 96 hours
[4] = 5% MSM, 30 μg/ml oxacillin, 120 hours
[5] = 5% MSM, 60 μg/ml oxacillin, 72 hours
[6] = 5% MSM, 60 μg/ml oxacillin, 96 hours
[7] = 5% MSM, 60 μg/ml oxacillin, 120 hours
[8] = 6% MSM, 12 μg/ml oxacillin, 96 hours
[9] = 6% MSM, 12 μg/ml oxacillin, 120 hours
[10] = 6% MSM, 30 μg/ml oxacillin, 96 hours
[11] = 6% MSM, 30 μg/ml oxacillin, 120 hours
[12] = 6% MSM, 60 μg/ml oxacillin, 72 hours
[13] = 6% MSM, 60 μg/ml oxacillin, 96 hours
[14] = 6% MSM, 60 μg/ml oxacillin, 120 hours
[15] = 7% MSM, 12 μg/ml oxacillin, 96 hours
[16] = 7% MSM, 12 μg/ml oxacillin, 120 hours
[17] = 7% MSM, 30 μg/ml oxacillin, 96 hours
[18] = 7% MSM, 30 μg/ml oxacillin, 120 hours
[19] = 7% MSM, 60 μg/ml oxacillin, 72 hours
[20] = 7% MSM, 60 μg/ml oxacillin, 96 hours
[21] = 7% MSM, 60 μg/ml oxacillin, 120 hours
[22] = 8% MSM, 12 μg/ml oxacillin, 96 hours
[23] = 8% MSM, 12 μg/ml oxacillin, 120 hours
[24] = 8% MSM, 30 μg/ml oxacillin, 96 hours
[25] = 8% MSM, 30 μg/ml oxacillin, 120 hours
[26] = 8% MSM, 60 μg/ml oxacillin, 72 hours
[27] = 8% MSM, 60 μg/ml oxacillin, 96 hours
[28] = 8% MSM, 60 μg/ml oxacillin, 120 hours
[29] = 9% MSM, 12 μg/ml oxacillin, 96 hours
[30] = 9% MSM, 12 μg/ml oxacillin, 120 hours
[31] = 9% MSM, 30 μg/ml oxacillin, 96 hours
[32] = 9% MSM, 30 μg/ml oxacillin, 120 hours
[33] = 9% MSM, 60 μg/ml oxacillin, 72 hours
[34] = 9% MSM, 60 μg/ml oxacillin, 96 hours
[35] = 9% MSM, 60 μg/ml oxacillin, 120 hours
[36] = 10% MSM, 12 μg/ml oxacillin, 96 hours
[37] = 10% MSM, 12 μg/ml oxacillin, 120 hours
[38] = 10% MSM, 30 μg/ml oxacillin, 96 hours

Question: What does the source list for `CS(C)(=O)=O` [MSM, methylsulfonylmethane]?
Answer: survival (5% MSM, 12 μg/ml oxacillin, 48 hours): 4.5 × 10^3 cfu/ml and 4.0 × 10^3 cfu/ml and 4.2 × 10^3 cfu/ml; survival (5% MSM, 12 μg/ml oxacillin, 72 hours): >3.3 × 10^5 cfu/ml; Average Log [1]: 5.5 Log; survival [1]: >3.3 × 10^5 cfu/ml; Average Log [2]: 5.5 Log; survival [2]: >3.3 × 10^5 cfu/ml; survival (5% MSM, 30 μg/ml oxacillin, 48 hours): 5.8 × 10^3 cfu/ml and 6.0 × 10^3 cfu/ml and 5.9 × 10^3 cfu/ml; survival (5% MSM, 30 μg/ml oxacillin, 72 hours): >3.3 × 10^5 cfu/ml; Average Log [3]: 5.5 Log; survival [3]: >3.3 × 10^5 cfu/ml; Average Log [4]: 5.5 Log; survival [4]: >3.3 × 10^5 cfu/ml; survival (5% MSM, 60 μg/ml oxacillin, 48 hours): 3.0 × 10^3 cfu/ml and 2.7 × 10^3 cfu/ml and 3.3 × 10^3 cfu/ml; Average Log [5]: 5.5 Log; survival [5]: >3.3 × 10^5 cfu/ml; Average Log [6]: 5.5 Log; survival [6]: >3.3 × 10^5 cfu/ml; Average Log [7]: 5.5 Log; survival [7]: >3.3 × 10^5 cfu/ml; survival (6% MSM, 12 μg/ml oxacillin, 48 hours): 1.7 × 10^3 cfu/ml and 1.4 × 10^3 cfu/ml; survival (6% MSM, 12 μg/ml oxacillin, 72 hours): >3.3 × 10^5 cfu/ml; Average Log [8]: 5.5 Log; survival [8]: >3.3 × 10^5 cfu/ml; Average Log [9]: 5.5 Log; survival [9]: >3.3 × 10^5 cfu/ml; survival (6% MSM, 30 μg/ml oxacillin, 48 hours): 5.5 × 10^3 cfu/ml and 5.9 × 10^3 cfu/ml; survival (6% MSM, 30 μg/ml oxacillin, 72 hours): >3.3 × 10^5 cfu/ml; Average Log [10]: 5.5 Log; survival [10]: >3.3 × 10^5 cfu/ml; Average Log [11]: 5.5 Log; survival [11]: >3.3 × 10^5 cfu/ml; survival (6% MSM, 60 μg/ml oxacillin, 48 hours): 6.0 × 10^1 cfu/ml and 5.0 × 10^1 cfu/ml; Average Log [12]: 2.8 Log; survival [12]: 6.5 × 10^2 cfu/ml and 6.4 × 10^2 cfu/ml and 6.1 × 10^2 cfu/ml; Average Log [13]: 3.6 Log; survival [13]: 4.4 × 10^3 cfu/ml and 4.5 × 10^3 cfu/ml; Average Log [14]: 4.5 Log; survival [14]: 3.7 × 10^4 cfu/ml and 3.4 × 10^4 cfu/ml and 2.4 × 10^4 cfu/ml; survival (7% MSM, 12 μg/ml oxacillin, 48 hours): 9.0 × 10^3 cfu/ml and 8.9 × 10^3 cfu/ml and 8.5 × 10^3 cfu/ml; survival (7% MSM, 12 μg/ml oxacillin, 72 hours): >3.3 × 10^5 cfu/ml; Average Log [15]: 5.5 Log; survival [15]: >3.3 × 10^5 cfu/ml; Average Log [16]: 5.5 Log; survival [16]: >3.3 × 10^5 cfu/ml; survival (7% MSM, 30 μg/ml oxacillin, 48 hours): 2.0 × 10^2 cfu/ml and 2.1 × 10^2 cfu/ml and 2.2 × 10^2 cfu/ml; survival (7% MSM, 30 μg/ml oxacillin, 72 hours): 3.6 × 10^4 cfu/ml and 3.2 × 10^4 cfu/ml; Average Log [17]: 5.5 Log; survival [17]: >3.3 × 10^5 cfu/ml; Average Log [18]: 5.5 Log; survival [18]: >3.3 × 10^5 cfu/ml; survival (7% MSM, 60 μg/ml oxacillin, 48 hours): 1.0 × 10^4 cfu/ml and 1.1 × 10^4 cfu/ml; Average Log [19]: 5.5 Log; survival [19]: >3.3 × 10^5 cfu/ml; Average Log [20]: 5.5 Log; survival [20]: >3.3 × 10^5 cfu/ml; Average Log [21]: 5.5 Log; survival [21]: >3.3 × 10^5 cfu/ml; survival (8% MSM, 12 μg/ml oxacillin, 48 hours): 4.9 × 10^3 cfu/ml and 5.4 × 10^3 cfu/ml; survival (8% MSM, 12 μg/ml oxacillin, 72 hours): >3.3 × 10^5 cfu/ml; Average Log [22]: 5.5 Log; survival [22]: >3.3 × 10^5 cfu/ml; Average Log [23]: 5.5 Log; survival [23]: >3.3 × 10^5 cfu/ml; survival (8% MSM, 30 μg/ml oxacillin, 48 hours): 1.23 × 10^3 cfu/ml and 1.24 × 10^3 cfu/ml and 1.20 × 10^3 cfu/ml; survival (8% MSM, 30 μg/ml oxacillin, 72 hours): >3.3 × 10^5 cfu/ml; Average Log [24]: 5.5 Log; survival [24]: >3.3 × 10^5 cfu/ml; Average Log [25]: 5.5 Log; survival [25]: >3.3 × 10^5 cfu/ml; survival (8% MSM, 60 μg/ml oxacillin, 48 hours): 7.5 × 10^2 cfu/ml and 7.3 × 10^2 cfu/ml and 7.0 × 10^2 cfu/ml; Average Log [26]: 5.5 Log; survival [26]: >3.3 × 10^5 cfu/ml; Average Log [27]: 5.5 Log; survival [27]: >3.3 × 10^5 cfu/ml; Average Log [28]: 5.5 Log; survival [28]: >3.3 × 10^5 cfu/ml; survival (9% MSM, 12 μg/ml oxacillin, 48 hours): 2.4 × 10^3 cfu/ml and 2.5 × 10^3 cfu/ml and 2.3 × 10^3 cfu/ml; survival (9% MSM, 12 μg/ml oxacillin, 72 hours): 4.7 × 10^4 cfu/ml and 4.2 × 10^4 cfu/ml and 4.5 × 10^4 cfu/ml; Average Log [29]: 5.5 Log; survival [29]: >3.3 × 10^5 cfu/ml; Average Log [30]: 5.5 Log; survival [30]: >3.3 × 10^5 cfu/ml; survival (9% MSM, 30 μg/ml oxacillin, 48 hours): 2.8 × 10^2 cfu/ml and 2.6 × 10^2 cfu/ml and 2.2 × 10^2 cfu/ml; survival (9% MSM, 30 μg/ml oxacillin, 72 hours): 8.8 × 10^2 cfu/ml and 8.1 × 10^2 cfu/ml and 8.5 × 10^2 cfu/ml; Average Log [31]: 4.0 Log; survival [31]: 1.0 × 10^4 cfu/ml and 1.02 × 10^4 cfu/ml and 1.01 × 10^4 cfu/ml; Average Log [32]: 5.5 Log; survival [32]: >3.3 × 10^5 cfu/ml; survival (9% MSM, 60 μg/ml oxacillin, 48 hours): 1.8 × 10^2 cfu/ml and 1.7 × 10^2 cfu/ml and 1.5 × 10^2 cfu/ml; Average Log [33]: 2.5 Log; survival [33]: 3.3 × 10^3 cfu/ml and 3.2 × 10^3 cfu/ml; Average Log [34]: 5.5 Log; survival [34]: >3.3 × 10^5 cfu/ml; Average Log [35]: 5.5 Log; survival [35]: >3.3 × 10^5 cfu/ml; survival (10% MSM, 12 μg/ml oxacillin, 48 hours): 5.4 × 10^2 cfu/ml; survival (10% MSM, 12 μg/ml oxacillin, 72 hours): 1.2 × 10^4 cfu/ml and 1.1 × 10^4 cfu/ml and 1.0 × 10^4 cfu/ml; Average Log [36]: 5.5 Log; survival [36]: >3.3 × 10^5 cfu/ml; Average Log [37]: 5.5 Log; survival [37]: >3.3 × 10^5 cfu/ml; survival (10% MSM, 30 μg/ml oxacillin, 48 hours): 4.3 × 10^2 cfu/ml and 4.0 × 10^2 cfu/ml; survival (10% MSM, 30 μg/ml oxacillin, 72 hours): 8.9 × 10^3 cfu/ml and 9.0 × 10^3 cfu/ml and 8.5 × 10^3 cfu/ml; Average Log [38]: 5.5 Log; survival [38]: >3.3 × 10^5 cfu/ml; Average Log (10% MSM, 30 μg/ml oxacillin, 120 hours): 5.5 Log
